Assay results published in PubChem BioAssay AID651640 (Broad Institute, 2012).
Among all 350,000 compounds or so, about 6,000 (1.7%) were called active. This list was built around the results that the source calls inconclusive (neither active nor inactive); the mix of calls is not that of the screen. Rule as the data show it: active = CPE inhibition above about 20% (passing the limit was not always enough); inconclusive = no clear call, values can overlap the other calls; tested in BHK-21 cells.

assay: protection of cells from dengue 2 killing – plate reader, single concentration, primary screen (AID 651640); conditions: DENV2-infected cells, cytopathic effect rescue, at 9.99 µM, stronger effect = higher value;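 also: 0% = median of neutral control wells and 100% = median of positive control wells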

| Compound | CPE inhibition |
| --- | --- |
| C[C@H](O)C#Cc1cnc2c(c1)C(=O)N([C@H](C)CO)C[C@@H](C)[C@@H](CN(C)C(=O)c1ccccc1)O2 | inconclusive: 25% |
| C/C=C(\C)C(=O)N[C@@H](C)CN1C2=NC[C@H](C(C)C)N2C[C@H]1Cc1ccc(OC)cc1 | inconclusive: 51.1% |
| CCOc1ccc(NC(=O)CCC(=O)NNC(=O)c2ccccc2Cl)cc1 | inconclusive: 24.7% |
| Cc1noc(C)c1S(=O)(=O)Nc1ccc2c(c1)C(=O)N([C@H](C)CO)C[C@@H](C)[C@@H](CN(C)C(=O)Nc1ccc(F)cc1)OCCCC[C@@H](C)O2 | inconclusive: 22.9% |
| CN(C)CCCNC(=O)C[C@@H]1CC[C@H]2[C@@H](COC[C@H](O)CN2S(=O)(=O)c2ccccc2)O1 | active: 59.9% |
| COc1cccc(-c2ccc3c(c2)[C@@H]2[C@@H](CCN2S(=O)(=O)c2ccccc2C)[C@H](CO)N3C)c1 | active: 28.5% |
| Cc1ccc(NS(=O)(=O)c2cccc(C(=O)NC3CCN(Cc4ccccc4)CC3)c2)c(C)c1 | inconclusive: 24.8% |
| COc1ccc(CNC(=O)[C@H](C)NC(=O)C2CCN(C(=O)[C@H](CCSC)NC(=O)OC(C)(C)C)CC2)cc1 | inconclusive: 58.2% |
| CO[C@H]1CN(C)C(=O)c2ccc(NS(C)(=O)=O)cc2OC[C@@H](C)N(C(=O)NC(C)C)C[C@@H]1C | inactive: -2.06% |
| Cc1nc(SCc2ccc(F)cc2)c([N+](=O)[O-])[nH]1 | active: 70.9% |
| CCCc1c(C)[nH]c2ccc(C(=O)O)cc2c1=S | inactive: 19% |
| Cc1ccnc(NC(=O)c2cccc(NC(=O)CC3SC(N4CCCCC4)=NC3=O)c2)c1 (stereo not drawn) | inconclusive: 52% |
| C[C@H]1CCCCO[C@H](CN(C)C(=O)c2ccncc2)[C@@H](C)CN([C@@H](C)CO)C(=O)c2cc(NC(=O)CCC(F)(F)F)ccc2O1 | inconclusive: 41.5% |
| CCN(CC)S(=O)(=O)c1ccc(OC)c(NC(=O)CCc2c(C)noc2C)c1 | inactive: -4.63% |
| C[C@H](CO)N1C[C@H](C)[C@H](CN(C)Cc2ccc(C(=O)O)cc2)Oc2ccc(NC(=O)Nc3ccc(C(F)(F)F)cc3)cc2CC1=O | inactive: -3.78% |
| CCOc1ccc(-n2ccc(=O)c(C(=O)Nc3ccc(S(=O)(=O)Nc4ncccn4)cc3)n2)cc1 | inconclusive: 26.3% |
| Cc1cc(-n2cnc(-c3cn(C)nc3C)n2)no1 | inconclusive: 21.9% |
| N#C[C@@H]1[C@@H](c2ccc(-c3ccc(F)cc3)cc2)[C@H](CO)N1c1nc(-c2ccccc2)cs1 | active: 60.9% |
| CC(=O)Nc1cccc(C(=O)Nc2ccc(S(=O)(=O)NC3=NCCCCC3)cc2)c1 | inconclusive: 21.4% |
| Cc1cc(C)c(C(=O)N(C)C2CCCN(Cc3ccccc3F)C2)o1 (stereo not drawn) | active: 37% |
| COc1ccc(C(=O)NCc2nnc(SCC(=O)NC3CCCCC3)o2)cc1 | inconclusive: 35.5% |
| COc1ccc2c3c([nH]c2c1)[C@@H](CO)N(C(=O)C1CC1)CC31CCN(Cc2nccs2)CC1 | active: 25.2% |
| COCC(=O)N1CCCCN2[C@H](CO)[C@H](c3ccc(-c4ccc(C)cc4)cc3)[C@@H]2C1 | inconclusive: 31.9% |
| CC(C)c1[nH]nc2c1C(c1cccc(C(F)(F)F)c1)NC2=O (stereo not drawn) | inconclusive: 21.7% |
| CC(C)CC#Cc1ccc2c(c1)O[C@H](CN(C)S(=O)(=O)c1cccc(F)c1)[C@H](C)CN([C@@H](C)CO)S2(=O)=O | inactive: 3.86% |

4 records drawn at random from the list so far, as already listed:

| Compound | CPE inhibition |
| --- | --- |
| C[C@H](O)C#Cc1cnc2c(c1)C(=O)N([C@H](C)CO)C[C@@H](C)[C@@H](CN(C)C(=O)c1ccccc1)O2 | inconclusive: 25% |
| CO[C@H]1CN(C)C(=O)c2ccc(NS(C)(=O)=O)cc2OC[C@@H](C)N(C(=O)NC(C)C)C[C@@H]1C | inactive: -2.06% |
| Cc1ccnc(NC(=O)c2cccc(NC(=O)CC3SC(N4CCCCC4)=NC3=O)c2)c1 (stereo not drawn) | inconclusive: 52% |
| C/C=C(\C)C(=O)N[C@@H](C)CN1C2=NC[C@H](C(C)C)N2C[C@H]1Cc1ccc(OC)cc1 | inconclusive: 51.1% |

Following part:

| Compound | CPE inhibition |
| --- | --- |
| CC(C)c1ccc2nc(NC(=O)C3CC3)sc2c1 | inconclusive: 29.8% |
| C[C@@H]1CN([C@@H](C)CO)C(=O)c2cc(-c3cccnc3)cnc2O[C@H]1CN(C)C(=O)Nc1ccc2c(c1)OCO2 | inactive: 8.26% |
| Cn1cnc(S(=O)(=O)N[C@H]2C=C[C@@H](CC(=O)NCC3CC3)O[C@H]2CO)c1 | inactive: 8.14% |
| COc1ccc(-c2ccc3c(c2)[C@H]2[C@H](CCN2C(=O)Cc2ccccc2)[C@H](CO)N3C)cc1 | inactive: -18.3% |
| Cc1noc(C)c1S(=O)(=O)Nc1ccc2c(c1)C(=O)N([C@H](C)CO)C[C@@H](C)[C@@H](CN(C)Cc1ccc(Cl)c(Cl)c1)O2 | inactive: -5.77% |
| CCOC(=O)C1=C(N)Oc2ccc3ccccc3c2C1c1cccc(O)c1 (stereo not drawn) | inconclusive: 87.8% |
| CO[C@H](CN(C)C(=O)c1ccc2c(c1)OCO2)[C@H](C)CN([C@H](C)CO)S(=O)(=O)c1ccc(C)cc1 | inactive: 1.82% |
| COc1ccc(CCC(=O)NCC2CCCCC2)cc1OC | inconclusive: 27% |
| CCc1c(C)nc2[nH]ncn2c1=O | inconclusive: 51.9% |
| N#C[C@H]1[C@H](c2ccc(-c3cccc(F)c3)cc2)[C@H](CO)N1C(=O)CN1CCOCC1 | inconclusive: 27.6% |
| CCCN(CC(=O)Nc1ccccc1C)C(=O)c1ccc(S(=O)(=O)N2CCCCC2)cc1 | inconclusive: 49.2% |
| O=C(C[C@H]1CC[C@H](NS(=O)(=O)c2ccccc2)[C@@H](CO)O1)NCc1ccc(Cl)c(Cl)c1 | inconclusive: 40.3% |
| O=C(CSc1cccc(C(F)(F)F)c1)NCc1ccccc1 | inconclusive: 27.4% |
| Nc1nnc(SCC(=O)OCC(=O)c2ccccc2)s1 | inconclusive: 20.1% |
| COc1ccccc1NC(=S)N(Cc1cccnc1)Cc1ccco1 | inactive: -1.06% |
| Cc1cc(Br)ccc1NC(=O)CNC(=O)Cc1ccc(S(=O)(=O)N2CCOCC2)s1 | active: 39.1% |
| CC1=NCCN1CCNC(=O)Nc1ccc(C(C)(C)C)cc1 | active: 23.7% |
| C=C[C@@H](C)[C@@H](OC(=O)Nc1ccc(OC)cc1)c1ccc(OCCO)cc1 | inactive: 13.1% |
| C=CCC[C@H](Cc1ccc(F)cc1)C(=O)OC[C@H](Cc1c[nH]c2ccccc12)NC(=O)[C@H](CC=C)CC(=O)N(CCO)Cc1ccccc1 | inconclusive: 23.5% |
| COc1ccc(Cc2noc(=O)[nH]2)cc1 | inconclusive: 27% |
| CC(C)C(C)NC(=O)COc1ccc([N+](=O)[O-])cc1Cl (stereo not drawn) | inactive: 2.18% |
| CC(C)C(=O)Nc1c(C(=O)c2ccc(F)cc2)oc2ccccc12 | inconclusive: 39.5% |
| N#CNC(=Nc1cccc(F)c1)SCc1ccccc1 | inactive: 3.32% |
| Cc1cc(C)nc(SCC(=O)Nc2ccc3c(c2)OCO3)n1 | inconclusive: 29.8% |
| Cn1cnc(S(=O)(=O)N[C@@H]2CC[C@H](CC(=O)Nc3ccccc3)O[C@H]2CO)c1 | inconclusive: 44.7% |

| Compound | CPE inhibition |
| --- | --- |
| Cc1ccc(CN2CCN(CCCn3cnc4c(OCc5ccccc5)ncnc43)CC2)cc1 | inconclusive: 28.7% |
| CC(C)C[C@@]12C(=O)N(c3cccc(Cl)c3)C(=O)N1[C@H](c1ccc(Cl)cc1)[C@@H]1C(=O)N(C3CCCCC3)C(=O)[C@@H]12 | inactive: 1.93% |
| COc1ccc2c3c([nH]c2c1)[C@H](CO)N(C(=O)C1CCCCC1)CC31CCN(C(=O)NC(C)C)CC1 | active: 29.4% |
| CCOC(=O)CN1C(=O)C(=O)N(Cc2cccc(C)c2)C1=O | inconclusive: 21.7% |
| CCOc1ccc(N(CC(=O)Nc2cccc(C)c2)S(C)(=O)=O)cc1 | active: 42.7% |
| COc1cccc(CNc2nc3cc(-c4cccc(Cl)c4)sc3c(=O)n2C)c1 | inconclusive: 38.2% |
| COc1cc(C(=S)N2CCCC2)ccc1OCc1ccc(C)cc1 | active: 47% |
| O=C(NCc1ccc2c(c1)OCO2)c1ccc(CS(=O)(=O)c2ccc(Br)cc2)o1 | inconclusive: 38.2% |
| CC(=O)N(C)C[C@H]1Oc2ncc(C#Cc3ccncc3)cc2C(=O)N([C@@H](C)CO)C[C@H]1C | inconclusive: 26.8% |
| C[C@@H]1CN([C@H](C)CO)C(=O)c2cc(NC(=O)Cc3ccccc3)ccc2O[C@@H]1CN(C)Cc1ccc2c(c1)OCO2 | inactive: 9.33% |
| O=C(Nc1cccc(Cc2ccccc2)c1)Nc1cccc2[nH]c([C@@H]3O[C@H](CO)[C@@H](O)[C@H](O)[C@H]3O)nc12 | inconclusive: 59.4% |
| O=C(COC(=O)c1c[nH]c(=O)[nH]c1=O)Nc1cccc([N+](=O)[O-])c1 | inconclusive: 21% |
| COc1cc(/C=C/C(=O)OCC(=O)Nc2ccc(Cl)cn2)ccc1O | inactive: -6.29% |
| CC(=O)N[C@H]1CC[C@@H](CCNC(=O)C2CCCCC2)O[C@H]1CO | inactive: 6.8% |
| C[C@H]1CN([C@@H](C)CO)S(=O)(=O)c2ccc(-c3cccnc3)cc2O[C@H]1CN(C)C(=O)CC1CC1 | inconclusive: 21.4% |
| COC(=O)C1C/C(=N/NS(=O)(=O)c2ccc(C)cc2)CS1 (stereo not drawn) | inconclusive: 26.8% |
| CC(C)NC(=O)N1CC2(C1)[C@H](c1ccccc1)[C@@H](CO)N2CCC(F)(F)F | inactive: -8.37% |
| C[C@@H]1CCCCO[C@@H](CN(C)S(=O)(=O)c2cn(C)cn2)[C@@H](C)CN([C@H](C)CO)C(=O)c2cc(NS(=O)(=O)c3ccc(Cl)cc3)ccc2O1 | active: 36.8% |
| COc1ccc(CC(=O)NNC(=O)c2ccc(Br)s2)cc1OC | inactive: -3.97% |
| COc1ccccc1N(CC(=O)NC(C)(C)C)S(=O)(=O)c1cccs1 | inconclusive: 27% |
| COc1ccc(NC(=O)CN(C)S(=O)(=O)c2ccc(C)cc2)c([N+](=O)[O-])c1 | inconclusive: 33.5% |
| O=C(Nc1ccc(F)cc1)N1CC(=O)N2[C@H](CO)[C@H](c3ccc(-c4ccccc4)cc3)[C@@H]2C1 | inconclusive: 27.9% |
| C[C@H](CO)N1C[C@H](C)[C@H](CN(C)Cc2ccc(C(F)(F)F)cc2)OCCCC[C@H](C)Oc2ccc(NC(=O)Nc3ccccc3)cc2C1=O | inactive: -11.9% |
